Assay results from paper PMC12502315.
No constants are given. Whether binding was seen depends on the method and setting. In cells and extracts the contact can be indirect. Some binding calls cover weakened binding; strength is not graded here.

By UniProt entry, the sequences of proteins in these tests, tags left out. Residues count along the entry.
UniProt Q9QUK6, residues 26-835: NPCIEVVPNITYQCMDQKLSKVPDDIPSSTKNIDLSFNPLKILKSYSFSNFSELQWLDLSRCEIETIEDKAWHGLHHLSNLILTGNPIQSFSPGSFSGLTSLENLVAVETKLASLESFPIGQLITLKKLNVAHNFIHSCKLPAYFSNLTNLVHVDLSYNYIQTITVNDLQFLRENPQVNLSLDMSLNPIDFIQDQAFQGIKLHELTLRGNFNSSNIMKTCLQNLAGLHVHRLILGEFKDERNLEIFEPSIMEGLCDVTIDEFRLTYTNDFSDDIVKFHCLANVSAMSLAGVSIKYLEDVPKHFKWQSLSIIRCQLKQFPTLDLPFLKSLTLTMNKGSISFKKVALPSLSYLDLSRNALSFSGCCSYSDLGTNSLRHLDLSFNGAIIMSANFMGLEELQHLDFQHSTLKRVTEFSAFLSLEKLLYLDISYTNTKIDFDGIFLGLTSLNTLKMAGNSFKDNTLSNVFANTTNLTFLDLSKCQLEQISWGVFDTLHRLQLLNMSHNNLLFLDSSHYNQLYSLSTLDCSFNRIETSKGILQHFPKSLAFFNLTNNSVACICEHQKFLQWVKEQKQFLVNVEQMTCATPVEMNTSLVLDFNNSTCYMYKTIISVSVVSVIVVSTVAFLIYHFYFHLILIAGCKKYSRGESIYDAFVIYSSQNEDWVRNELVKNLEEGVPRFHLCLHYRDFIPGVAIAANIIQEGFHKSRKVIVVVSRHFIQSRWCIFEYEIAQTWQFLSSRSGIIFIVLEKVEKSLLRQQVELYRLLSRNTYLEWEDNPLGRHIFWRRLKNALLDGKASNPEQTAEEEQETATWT

Molecular target: T1, Triggering receptor expressed on myeloid cells 2 (mouse (endogenous in RAW 264.7)) (UniProt Q99NH8)
T1 sequence: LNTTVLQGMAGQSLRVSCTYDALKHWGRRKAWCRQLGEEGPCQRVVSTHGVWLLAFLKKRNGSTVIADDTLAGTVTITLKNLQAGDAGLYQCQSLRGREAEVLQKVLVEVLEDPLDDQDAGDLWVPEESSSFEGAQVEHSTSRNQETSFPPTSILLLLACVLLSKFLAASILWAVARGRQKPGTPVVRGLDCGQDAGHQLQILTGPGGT
Assay: co-IP; endogenous; RAW 264.7 cell lysate (20 mM Tris pH 7.5, 150 mM NaCl, 1% Triton X-100) immunoprecipitated with Trem2 antibody or isotype control overnight, Protein A/G agarose beads 4 C 2 h; western blot for TLR4; cells with or without TgAg (5 ug/ml, 24 h)

For “Toll-like receptor 4 (from UniProt Q9QUK6 26-835)”, the binding was “binds”.
